The values below come from article doi:10.1101/2023.06.23.544932.

Sequences of proteins named here, by UniProt entry; tags and fusion partners are left off.
UniProt Q6EVK6: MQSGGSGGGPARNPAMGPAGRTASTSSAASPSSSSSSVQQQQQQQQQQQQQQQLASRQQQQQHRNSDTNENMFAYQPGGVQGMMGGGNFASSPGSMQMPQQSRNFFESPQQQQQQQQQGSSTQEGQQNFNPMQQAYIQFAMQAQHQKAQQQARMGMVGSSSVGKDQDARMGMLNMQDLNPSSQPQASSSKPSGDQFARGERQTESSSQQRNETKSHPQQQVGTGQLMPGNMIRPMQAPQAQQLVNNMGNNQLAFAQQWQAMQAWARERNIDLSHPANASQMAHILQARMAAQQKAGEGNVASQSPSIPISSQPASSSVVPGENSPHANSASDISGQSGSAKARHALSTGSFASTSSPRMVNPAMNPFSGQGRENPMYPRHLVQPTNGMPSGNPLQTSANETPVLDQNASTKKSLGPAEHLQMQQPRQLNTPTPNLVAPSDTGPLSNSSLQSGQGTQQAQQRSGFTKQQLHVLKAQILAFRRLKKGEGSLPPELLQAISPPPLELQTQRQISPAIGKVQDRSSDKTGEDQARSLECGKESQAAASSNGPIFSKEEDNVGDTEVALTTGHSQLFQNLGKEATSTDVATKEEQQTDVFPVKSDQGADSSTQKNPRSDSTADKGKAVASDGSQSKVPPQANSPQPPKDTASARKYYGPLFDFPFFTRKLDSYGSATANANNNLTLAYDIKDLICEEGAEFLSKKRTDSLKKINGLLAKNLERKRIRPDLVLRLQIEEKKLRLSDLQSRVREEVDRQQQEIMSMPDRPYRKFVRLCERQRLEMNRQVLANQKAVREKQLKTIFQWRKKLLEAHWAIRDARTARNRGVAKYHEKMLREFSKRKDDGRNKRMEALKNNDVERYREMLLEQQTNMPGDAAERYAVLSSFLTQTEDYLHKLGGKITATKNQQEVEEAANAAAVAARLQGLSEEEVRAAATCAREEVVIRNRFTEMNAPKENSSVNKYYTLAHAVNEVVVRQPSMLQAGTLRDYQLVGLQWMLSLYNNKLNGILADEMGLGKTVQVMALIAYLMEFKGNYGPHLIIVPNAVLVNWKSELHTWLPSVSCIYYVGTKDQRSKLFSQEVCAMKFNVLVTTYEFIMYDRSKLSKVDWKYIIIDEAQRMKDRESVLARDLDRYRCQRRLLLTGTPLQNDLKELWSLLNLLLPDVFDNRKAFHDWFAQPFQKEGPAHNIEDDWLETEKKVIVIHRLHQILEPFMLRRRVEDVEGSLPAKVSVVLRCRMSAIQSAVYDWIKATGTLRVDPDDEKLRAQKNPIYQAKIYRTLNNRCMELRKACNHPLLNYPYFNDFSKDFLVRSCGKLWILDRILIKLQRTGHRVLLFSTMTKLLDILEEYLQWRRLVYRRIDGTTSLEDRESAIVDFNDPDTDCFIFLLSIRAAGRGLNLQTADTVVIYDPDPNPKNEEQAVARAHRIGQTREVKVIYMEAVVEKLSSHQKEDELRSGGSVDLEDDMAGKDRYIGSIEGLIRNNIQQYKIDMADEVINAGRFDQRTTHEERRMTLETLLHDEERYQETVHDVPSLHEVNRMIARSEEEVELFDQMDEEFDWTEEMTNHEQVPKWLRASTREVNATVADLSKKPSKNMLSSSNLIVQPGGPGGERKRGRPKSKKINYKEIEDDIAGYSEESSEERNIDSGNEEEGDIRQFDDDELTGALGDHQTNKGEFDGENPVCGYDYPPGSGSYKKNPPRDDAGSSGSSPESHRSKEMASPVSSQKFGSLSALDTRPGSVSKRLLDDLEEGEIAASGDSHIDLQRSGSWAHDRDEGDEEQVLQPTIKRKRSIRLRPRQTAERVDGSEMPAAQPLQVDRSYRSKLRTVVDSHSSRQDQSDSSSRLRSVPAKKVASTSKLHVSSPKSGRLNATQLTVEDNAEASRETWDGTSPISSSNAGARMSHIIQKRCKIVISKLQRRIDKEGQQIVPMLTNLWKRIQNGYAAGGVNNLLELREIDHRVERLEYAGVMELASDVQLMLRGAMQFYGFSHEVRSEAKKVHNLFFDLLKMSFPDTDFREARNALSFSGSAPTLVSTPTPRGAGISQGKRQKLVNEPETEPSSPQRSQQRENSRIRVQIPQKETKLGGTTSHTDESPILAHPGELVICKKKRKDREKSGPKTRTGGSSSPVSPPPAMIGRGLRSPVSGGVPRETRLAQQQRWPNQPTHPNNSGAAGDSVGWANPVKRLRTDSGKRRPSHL

Results are given in words; binding and its absence hold for the method and conditions named. In cells and extracts the contact can be indirect. Here binding means that the protein was enriched with, or labelled near, the bait; the list need not be complete.

The target of the test is BRASSINAZOLE-… 1 (BZR1), YFP-tagged (Arabidopsis thaliana) (UniProt Q8S307). Nature of the test: affinity purification with mass spectrometry.

As to “BRAHMA (BRM), SWI/SNF chromatin remodeler ATPase (from UniProt Q6EVK6 1-2193)”, the binding entry was “binds”.
